These are yes or no findings as the source states them, for the method shown. Some binding calls cover weakened binding; strength is not graded here.

This assay concerns the target T1, mouse signal regulatory protein (SIRP)α (mouse) (UniProt P97797).
T1 sequence (looked up): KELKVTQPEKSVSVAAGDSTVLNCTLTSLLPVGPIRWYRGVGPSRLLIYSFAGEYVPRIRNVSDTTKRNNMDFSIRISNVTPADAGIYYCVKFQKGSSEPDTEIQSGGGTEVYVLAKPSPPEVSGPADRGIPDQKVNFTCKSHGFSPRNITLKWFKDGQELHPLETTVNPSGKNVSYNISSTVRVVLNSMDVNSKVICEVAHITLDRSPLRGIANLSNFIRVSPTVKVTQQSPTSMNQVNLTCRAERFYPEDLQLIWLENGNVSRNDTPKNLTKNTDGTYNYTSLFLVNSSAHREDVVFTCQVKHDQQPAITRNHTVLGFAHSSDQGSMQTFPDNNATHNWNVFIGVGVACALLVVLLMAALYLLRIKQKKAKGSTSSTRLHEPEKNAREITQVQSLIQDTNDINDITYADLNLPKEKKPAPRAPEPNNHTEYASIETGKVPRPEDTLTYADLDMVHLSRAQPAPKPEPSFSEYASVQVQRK
Put plainly: WT mouse RBCs on WT mouse macrophages; SIRPα phosphotyrosine IP/Western blot. On the technique in general: In western blotting, separated proteins are transferred to a membrane and probed.

B1: mouse CD47 (ligand, UniProt Q61735 19-303, looked up)
chain: QLLFSNVNSIEFTSCNETVVIPCIVRNVEAQSTEEMFVKWKLNKSYIFIYDGNKNSTTTDQNFTSAKISVSDLINGIASLKMDKRDAMVGNYTCEVTELSREGKTVIELKNRTVSWFSPNEKILIVIFPILAILLFWGKFGILTLKYKSSHTNKRIILLLVAGLVLTVIVVVGAILLIPGEKPVKNASGLGLIVISTGILILLQYNVFMTAFGMTSFTIAILITQVLGYVLALVGLCLCIMACEPVHGPLLISGLGIIALAELLGLVYMKFVASNQRTIQPPRNR
Take B1: the binding entry was “binds”.

The values above are taken from US20070113297A1.
